The record followed here is PMC10249096, “Design, Synthesis, and Evaluation of a New Series of Hydrazones as Small-Molecule Akt Inhibitors for NSCLC Therapy” (ACS Omega, 2023).

The test system of the series is A549 human lung adenocarcinoma cells. In words: MTT test, cytotoxicity on A549 cells. The format is cell-based. To be noted: selectivity index L929/A549. How it is done: A549 and L929 cell lines were purchased from American Type Culture Collection (Manassas, VA, USA). Cells were cultured, and drug treatments were performed as previously explained.[46]
MTT assay was conducted as previously described[47] with slight modifications.[48] Cisplatin was used as a positive control. The assay was performed in triplicate. Half-maximal inhibitory concentration (IC50) data (μM) were expressed as mean ± SD.
A general note: Tetrazolium assays rely on reduction of a dye to a coloured formazan, in cell work by metabolically active cells.

On to `O=C(CSc1nc2cc(Cl)ccc2o1)NN=Cc1ccc(N2CCCCC2)cc1` [Compound 3e, N′-[4-(Piperidin-1-yl)benzylidene]-2-[(5-chlorobenzoxazol-2-yl)thio]acetohydrazide], for which the “SI (IC50 for L929 cells/IC50 for A549 cells)” value (from here on “SI”) was > 2.84.

Regarding `CN(C)c1ccc(C=NNC(=O)CSc2nc3cc(Cl)ccc3o2)cc1` [Compound 3a, N′-(4-Dimethylaminobenzylidene)-2-[(5-chlorobenzoxazol-2-yl)thio]acetohydrazide], the “SI” value is on record as > 5.47.

In the case of `CN1CCN(c2ccc(C=NNC(=O)CSc3nc4cc(Cl)ccc4o3)cc2)CC1` [Compound 3g, N′-[4-(4-Methylpiperazin-1-yl)benzylidene]-2-[(5-chlorobenzoxazol-2-yl)thio]acetohydrazide], the “SI” value was 5.94.

For `O=C(CSc1nc2cc(Cl)ccc2o1)NN=Cc1ccc(-n2ccnc2)cc1` [Compound 3i, N′-[4-(1H-Imidazol-1-yl)benzylidene]-2-[(5-chlorobenzoxazol-2-yl)thio]acetohydrazide], the “SI” value is > 5.98.
